Test results published in patent US7968744B2, “Physiological coolants based on lactoyl esters of menthyl lactate” (Renessenz, LLC, priority 2007, dated 2011).

Tested on: mouth (panel of three flavorists)
Experiment: Sensory evaluation of cooling strength by a panel of three flavorists
Format: in vivo
Description: The sensory properties of crystalline MLL and liquid products that contain MLL (from Examples 1-5, above) are evaluated by a panel of three flavorists. The standard method involves holding an aqueous solution containing 20 ppm of coolant in the mouth for 30 seconds, then spitting it out and observing and quantifying the cooling effect when compared with a set of reference standards. Based on their cooling strength, the samples are scored on a scale of 1 to 10, with 10 being the strongest. Samples used as reference standards are to monomenthyl glutarate (3.5 on this scale), l-menthyl lactate (4.5) and N-ethyl-3-p-menthane carboxamide, i.e., WS-3 (10). Several coolant “cocktails,” i.e., liquid coolant-mixtures, are prepared, and their sensory properties are evaluated as in Example 6. The compositions and results appear in Table 2.

SMILES: CC(C)[C@@H]1CC[C@@H](C)C[C@H]1OC(=O)[C@H](C)OC(=O)[C@H](C)O [Example 6, l-menthyl L-lactoyl-L-lactate]
- Perception (aqueous solution containing 20 ppm of coolant held in the mouth for 30 seconds, Table 1): clean, smooth
- Cooling effect, perception (in words) (sensory evaluation): clean, smooth cooling effect
